Results from article PMC7305236.
No constants are given. Whether binding was seen depends on the method and setting. Binding seen in cells or lysates may run through a third protein. Some results given as binding are weak or reduced against the parent protein; the word gives no strength.

Chains of the proteins cited; added tags and fusions are not shown.
UniProt P41146: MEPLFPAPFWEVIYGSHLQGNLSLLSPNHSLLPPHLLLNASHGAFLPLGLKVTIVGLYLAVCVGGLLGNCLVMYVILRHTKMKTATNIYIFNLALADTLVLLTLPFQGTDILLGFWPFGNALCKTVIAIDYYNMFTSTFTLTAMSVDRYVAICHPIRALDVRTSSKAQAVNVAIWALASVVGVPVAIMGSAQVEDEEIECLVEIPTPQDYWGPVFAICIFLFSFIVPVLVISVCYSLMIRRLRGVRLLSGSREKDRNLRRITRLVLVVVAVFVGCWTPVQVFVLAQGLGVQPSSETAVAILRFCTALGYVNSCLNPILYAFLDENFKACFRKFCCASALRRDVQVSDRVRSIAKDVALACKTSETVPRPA
UniProt P35372: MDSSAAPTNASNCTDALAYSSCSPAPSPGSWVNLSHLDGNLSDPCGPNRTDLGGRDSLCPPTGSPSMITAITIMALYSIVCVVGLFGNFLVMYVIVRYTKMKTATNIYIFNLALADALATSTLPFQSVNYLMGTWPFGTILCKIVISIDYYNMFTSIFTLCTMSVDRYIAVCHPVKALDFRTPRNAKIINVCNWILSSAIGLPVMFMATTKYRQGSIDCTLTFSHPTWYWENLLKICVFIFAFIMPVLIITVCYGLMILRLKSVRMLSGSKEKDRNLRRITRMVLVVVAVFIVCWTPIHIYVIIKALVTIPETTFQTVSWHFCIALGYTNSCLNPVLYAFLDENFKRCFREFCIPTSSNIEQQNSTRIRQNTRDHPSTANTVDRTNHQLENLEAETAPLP
UniProt P41143: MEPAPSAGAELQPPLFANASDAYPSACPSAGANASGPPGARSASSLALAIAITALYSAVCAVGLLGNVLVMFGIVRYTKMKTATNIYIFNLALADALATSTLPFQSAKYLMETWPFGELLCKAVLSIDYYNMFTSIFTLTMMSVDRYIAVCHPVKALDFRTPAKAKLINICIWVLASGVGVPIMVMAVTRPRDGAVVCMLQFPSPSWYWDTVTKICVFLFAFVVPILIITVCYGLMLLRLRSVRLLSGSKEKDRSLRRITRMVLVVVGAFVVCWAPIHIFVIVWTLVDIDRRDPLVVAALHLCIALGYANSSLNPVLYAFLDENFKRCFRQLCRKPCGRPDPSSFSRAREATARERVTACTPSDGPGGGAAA
UniProt P49407: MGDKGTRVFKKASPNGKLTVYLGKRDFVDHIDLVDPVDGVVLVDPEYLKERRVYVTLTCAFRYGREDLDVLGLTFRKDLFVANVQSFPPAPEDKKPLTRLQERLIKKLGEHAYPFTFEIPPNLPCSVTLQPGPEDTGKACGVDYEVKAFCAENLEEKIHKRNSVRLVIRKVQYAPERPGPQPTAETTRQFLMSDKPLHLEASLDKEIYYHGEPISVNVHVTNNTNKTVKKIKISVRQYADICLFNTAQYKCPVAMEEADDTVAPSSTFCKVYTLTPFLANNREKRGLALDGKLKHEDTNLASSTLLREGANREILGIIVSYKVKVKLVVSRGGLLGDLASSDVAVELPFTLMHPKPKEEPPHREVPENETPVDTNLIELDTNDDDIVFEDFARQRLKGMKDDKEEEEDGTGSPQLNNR

Tests used:
Experiment in all cases: split reporter
[1] = target: nociceptin receptor (NOP) C-terminally tagged with SmBiT (UniProt P41146)
[2] = target: mu opioid receptor (MOR) C-terminally tagged with SmBiT (UniProt P35372)
[3] = target: delta opioid receptor (DOR) C-terminally tagged with SmBiT (UniProt P41143)

binding [1]: binds
binding [2]: binds
binding [3]: binds
Substance: human β-arrestin-1 (arrestin-2) N-terminally fused to LgBiT (from UniProt P49407 1-418)
